Data: patent publication US20260274983A1 (MODERNATX, published 2026)
These are yes or no findings as the source states them, for the method shown. Some binding calls cover weakened binding; strength is not graded here.

Amino acid sequences for entries named in this document (tags omitted).
UniProt Q9NZD1: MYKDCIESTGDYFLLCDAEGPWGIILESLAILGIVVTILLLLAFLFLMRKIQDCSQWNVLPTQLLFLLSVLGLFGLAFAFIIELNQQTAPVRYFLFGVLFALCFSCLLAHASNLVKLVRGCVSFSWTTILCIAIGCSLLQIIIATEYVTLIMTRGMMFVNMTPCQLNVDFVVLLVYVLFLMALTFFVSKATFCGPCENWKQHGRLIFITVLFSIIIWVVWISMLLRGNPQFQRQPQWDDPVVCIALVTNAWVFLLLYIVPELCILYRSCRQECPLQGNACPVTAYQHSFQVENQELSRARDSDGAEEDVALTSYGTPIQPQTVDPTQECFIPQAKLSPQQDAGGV

B1: GPRC5D-VHH1-H7 (VHH)
VHH: QVQLVESGGGLVQPGGSLRLSCAASGRTVSSYAMGWFRQAPGKEREFVSAISWSGRSTYYADSMKGRFTISRDNAKNTLYLQMNSLRAEDTAVYYCATSRAVIPGRDWNYYEYWGQGTLVTVSS
notes: Humanized variant of GPRC5D-VHH1
B2: GPRC5D-VHH3-H9 (VHH)
VHH: QVQLVESGGGLVQPGGSLRLSCAASGIIFSASNLAWYRQAPGKQRELVAGVTGGGSINYADSVKGRFTISRDNAKNTIYLQMNSLRAEDTAVYYCNARRSYSHWGQGTLVTVSS
notes: Humanized variant of GPRC5D-VHH3

How the values were obtained:
human GPRC5D [1] = biological target: T1, human GPRC5D (human, UniProt Q9NZD1 1-345); assay: FACS binding to CHO-huGPRC5D cells, VHH-His format
T1 construct: whole, on cells; Human is stated only for CHO-HuGPRC5D; also called HuGPRC5D; GPRC5D on CHO-HuGPRC5D cells

human GPRC5D [2] = biological target: T1, human GPRC5D; assay: FACS binding to H929 cells, VHH-His format

Binder | binding (human GPRC5D [1]) | binding (human GPRC5D [2])
B1 | binds | binds
B2 | binds | binds
